According to PubChem BioAssay AID248 (DTP/NCI, 2004):
The list is a part of this screen's results and no random one: it gathers tests that were run many times, whatever their T/C, doses with no T/C, and many T/C values between a quarter and a half above the control. Further doses and runs are listed elsewhere. T/C gives the treated animals as a percentage of the vehicle group. Some doses have a count of surviving animals in place of a T/C: the source holds a T/C of zero for them, seemingly a mark for toxic or unscored doses. Some survivor counts are full or nearly so, which does not show that the dose was tolerated: survival well below the control is almost never listed, so the zero probably covers shortened survival too. Counts of survivors are from the toxicity check (mostly the fifth day) where no day follows; animals may have died later. Schedules are NCI's codes, read here as Q, the interval in days (D) or hours (H), X, the number of doses. Some doses were run more than once; the results are listed from low to high. Some schedules carry Z or #; the key to these is not given. For survival time, the PubChem record calls one and a half times the control and up active, and a quarter to a half above the control has no call in these data; cut-offs in other NCI protocols can differ.

System: L1210 leukemia ip in BDF1 mice, survival T/C
Assay: NCI In Vivo Anticancer Drug Screen. Data for tumor model L1210 Leukemia (intraperitoneal) in B6D2F1 (BDF1) mice
Details: T/C endpoint: mean survival time, higher T/C = longer survival
[1] = dose: 200.0 mg/kg/injection, schedule: Q01DX001 (ip), vehicle: saline
[2] = dose: 400.0 mg/kg/injection, schedule: Q01DX001 (ip), vehicle: saline
[3] = dose: 400.0 mg/kg/injection, schedule: Q04DX003 (ip), vehicle: Klucel (hydroxypropylcellulose) (HPC)
[4] = dose: 200.0 mg/kg/injection, schedule: Q01DX009 (ip), vehicle: saline with Tween-80
[5] = dose: 400.0 mg/kg/injection, schedule: Q01DX009 (ip), vehicle: Klucel (hydroxypropylcellulose) (HPC)
[6] = dose: 200.0 mg/kg/injection, schedule: Q01DX009 (ip), vehicle: saline
[7] = dose: 200.0 mg/kg/injection, schedule: Q01DX001 (ip), vehicle: saline with Tween-80
[8] = dose: 400.0 mg/kg/injection, schedule: Q01DX001 (ip), vehicle: saline with Tween-80
[9] = dose: 400.0 mg/kg/injection, schedule: Q04DX003 (ip), vehicle: saline
[10] = dose: 400.0 mg/kg/injection, schedule: Q01DX009 (ip), vehicle: saline

Structure (SMILES): NC(=O)c1cc(Cl)cc(Cl)c1Br
- survivor count (dose: 400.0 mg/kg/injection, schedule: Q04DX003 (ip), vehicle: other): 2 of 6

Structure (SMILES): Cc1ccc(NCC(=O)NN)cc1
- survivor count (dose: 400.0 mg/kg/injection, schedule: Q04DX002 (ip), vehicle: Klucel (hydroxypropylcellulose) (HPC)): 1 of 3

Structure (SMILES): Brc1ccc2[nH]cc(/C=N/Nc3nnc(N/N=C/c4c[nH]c5ccc(Br)cc45)c4ccccc34)c2c1
- survivor count (dose: 100.0 mg/kg/injection, schedule: Q01DX001 (ip), vehicle: saline): 2 of 4
- survivor count [1]: 0 of 4
- survivor count [2]: 0 of 4

Structure (SMILES): CN1OCC2CCCC(c3ccccc3)C21 (stereo not drawn)
- survivor count [3]: 0 of 6

Structure (SMILES): C=C/C=C\N(CC)CC
- survivor count (dose: 100.0 mg/kg/injection, schedule: Q01DX009 (ip), vehicle: water): 3 of 6
- survivor count (dose: 100.0 mg/kg/injection, schedule: Q04DX003 (ip), vehicle: water): 5 of 6
- survivor count (dose: 200.0 mg/kg/injection, schedule: Q04DX003 (ip), vehicle: water): 1 of 6
- survivor count (dose: 400.0 mg/kg/injection, schedule: Q04DX003 (ip), vehicle: water): 0 of 6

Structure (SMILES): CCO/C=C/C(=O)NC(=S)Nc1ccccc1
- survivor count (dose: 400.0 mg/kg/injection, schedule: Q01DX009 (ip), vehicle: saline with Tween-80): 6 of 6

Structure (SMILES): CCOC(=O)C(CC(C(=O)OCC)C(=O)OCC)C(=O)OCC
- survivor count (dose: 50.0 mg/kg/injection, schedule: Q01DX009 (ip), vehicle: saline with Tween-80): 0 of 3
- survivor count (dose: 100.0 mg/kg/injection, schedule: Q01DX009 (ip), vehicle: saline with Tween-80): 3 of 3
- survivor count [4]: 3 of 3

Structure (SMILES): O=C1c2ccccc2C(=O)N1c1ccc(CBr)cc1
- survivor count (dose: 200.0 mg/kg/injection, schedule: Q01DX009 (ip), vehicle: Klucel (hydroxypropylcellulose) (HPC)): 1 of 3
- survivor count [5]: 2 of 3 and 4 of 6

Structure (SMILES): Nc1ncnc(N)c1[N+](=O)[O-]
- survivor count (dose: 250.0 mg/kg/injection, schedule: Q01DX Z (ip), vehicle: methylcellulose (MC)): 3 of 6
- survivor count (dose: 500.0 mg/kg/injection, schedule: Q01DX Z (ip), vehicle: methylcellulose (MC)): 0 of 6

Structure (SMILES): ClC(Cl)=C(Cl)C(Cl)=C(Cl)Cl
- survivor count (dose: 25.0 mg/kg/injection, schedule: Q04DX003 (ip), vehicle: Klucel (hydroxypropylcellulose) (HPC)): 0 of 6
- survivor count (dose: 50.0 mg/kg/injection, schedule: Q04DX003 (ip), vehicle: Klucel (hydroxypropylcellulose) (HPC)): 0 of 6
- survivor count (dose: 100.0 mg/kg/injection, schedule: Q04DX003 (ip), vehicle: Klucel (hydroxypropylcellulose) (HPC)): 0 of 6
- survivor count (dose: 200.0 mg/kg/injection, schedule: Q04DX003 (ip), vehicle: carboxymethylcellulose (CMC)): 2 of 6
- survivor count (dose: 400.0 mg/kg/injection, schedule: Q04DX003 (ip), vehicle: carboxymethylcellulose (CMC)): 0 of 6

Structure (SMILES): [Ni+2].[SH2+]C([SH2+])=Nc1ccccc1.[SH2+]C([SH2+])=Nc1ccccc1.c1ccc(C[P+](c2ccccc2)(c2ccccc2)c2ccccc2)cc1
- survivor count (dose: 12.0 mg/kg/injection, schedule: Q01DX009 (ip), vehicle: saline): 5 of 6
- survivor count (dose: 25.0 mg/kg/injection, schedule: Q01DX009 (ip), vehicle: saline): 0 of 6
- survivor count (dose: 50.0 mg/kg/injection, schedule: Q01DX009 (ip), vehicle: saline): 1 of 6
- survivor count (dose: 100.0 mg/kg/injection, schedule: Q01DX009 (ip), vehicle: saline): 0 of 6
- survivor count [6]: 0 of 6

Structure (SMILES): CC(=O)OC(CC[P+](c1ccccc1)(c1ccccc1)c1ccccc1)(C(=O)c1ccccc1)c1ccccc1 (stereo not drawn)
- survivor count [7]: 4 of 6
- survivor count [8]: 0 of 6

Structure (SMILES): CC(=O)O[C@@H]1C[C@@]2(C)[C@@H]3CC=C4[C@@H](C[C@H](O)C(=O)C4(C)C)[C@]3(C)C(=O)C[C@]2(C)[C@H]1[C@@](C)(O)C(=O)/C=C/C(C)(C)OC(C)=O
- survivor count [1]: 1 of 4
- survivor count [2]: 1 of 4

Structure (SMILES): O=C(COc1ccc(Cl)c(Cl)c1)NCCc1cc[n+](Cc2ccc(Cl)c(S(=O)(=O)F)c2)cc1
- survivor count (dose: 400.0 mg/kg/injection, schedule: Q01DX001 (ip), vehicle: Klucel (hydroxypropylcellulose) (HPC)): 1 of 6

Structure (SMILES): CCCC(C)OP(=O)(OCC)OCC (stereo not drawn)
- survivor count [5]: 0 of 6

Structure (SMILES): CCC(C)C(CN)(CCCN1CCCCC1)c1cccc2ccccc12 (stereo not drawn)
- survivor count [9]: 4 of 6

Structure (SMILES): Cc1ccc(S(=O)(=O)NCCN)cc1
- survivor count [9]: 0 of 6

Structure (SMILES): CCn1c(C)[n+](CCCOS(=O)(=O)[O-])c2ccccc21
- survivor count [9]: 2 of 6

Structure (SMILES): c1ccc(Nc2ncc3cnccn23)cc1
- survivor count [6]: 2 of 6
- survivor count [10]: 0 of 6

Structure (SMILES): CC(N)C(O)c1cccc(O)c1 (stereo not drawn)
- survivor count [6]: 2 of 6
- survivor count (dose: 200.0 mg/kg/injection, schedule: Q04DX003 (ip), vehicle: saline): 1 of 4
- survivor count [10]: 0 of 6
- survivor count [9]: 2 of 4

Structure (SMILES): C/C(=N/S(=O)(=O)c1ccc(C)cc1)OCCN(C)C
- survivor count (dose: 12.0 mg/kg/injection, schedule: Q01DX009 (ip), vehicle: saline with Tween-80): 1 of 6
- survivor count (dose: 12.0 mg/kg/injection, schedule: Q04DX003 (ip), vehicle: saline with Tween-80): 5 of 6
- survivor count (dose: 25.0 mg/kg/injection, schedule: Q04DX003 (ip), vehicle: saline with Tween-80): 1 of 6
- survivor count (dose: 50.0 mg/kg/injection, schedule: Q04DX003 (ip), vehicle: saline with Tween-80): 1 of 6
- survivor count (dose: 100.0 mg/kg/injection, schedule: Q04DX003 (ip), vehicle: saline with Tween-80): 0 of 6
- survivor count (dose: 200.0 mg/kg/injection, schedule: Q04DX003 (ip), vehicle: saline with Tween-80): 0 of 6
- survivor count (dose: 400.0 mg/kg/injection, schedule: Q04DX003 (ip), vehicle: saline with Tween-80): 0 of 6

Structure (SMILES): O=C1C(=O)c2ccccc2C(O)=C1CC=C1CCCCC1
- survivor count (dose: 400.0 mg/kg/injection, schedule: Q01DX009 (ip), vehicle: water): 0 of 6

Structure (SMILES): O=P(O)(N(CCCl)CCCl)N1CCN(Cc2ccccc2)CC1
- T/C (dose: 300.0 mg/kg/injection, schedule: Q01DX Z (ip), vehicle: other): 128 % of control

Structure (SMILES): CC(=O)OCC1OC(n2cnc3c(=S)nc(N)[nH]c32)CC1OC(C)=O (stereo not drawn)
- T/C (dose: 5.0 mg/kg/injection, schedule: Q01DX002 (ip), vehicle: Klucel (hydroxypropylcellulose) (HPC)): 134 % of control
- T/C (dose: 20.0 mg/kg/injection, schedule: Q04DX003 (ip), vehicle: Klucel (hydroxypropylcellulose) (HPC)): 131 % of control
- T/C (dose: 40.0 mg/kg/injection, schedule: Q04DX003 (ip), vehicle: Klucel (hydroxypropylcellulose) (HPC)): 145 % of control

Structure (SMILES): Cc1nc(N)[nH]c(=O)c1NC(=O)CCc1ccccc1
- survivor count (dose: 25.0 mg/kg/injection, schedule: Q01DX001 (ip), vehicle: saline with Tween-80): 6 of 6
- survivor count (dose: 50.0 mg/kg/injection, schedule: Q01DX001 (ip), vehicle: saline with Tween-80): 3 of 6
- survivor count (dose: 100.0 mg/kg/injection, schedule: Q01DX001 (ip), vehicle: saline with Tween-80): 1 of 6 and 2 of 6
- survivor count [7]: 0 of 6
- survivor count [8]: 0 of 6

Structure (SMILES): O=C1C(=O)c2c3ccccc3cc3cccc1c23
- survivor count [4]: 3 of 3

Structure (SMILES): Cc1ccccc1OCC(Cl)CN(C)C (stereo not drawn)
- survivor count [2]: 0 of 4

Structure (SMILES): CN(CCC#N)c1ccc(-c2cc(C(=O)O)c3cc4ccccc4cc3n2)cc1
- survivor count (dose: 100.0 mg/kg/injection, schedule: Q04DX002 (ip), vehicle: Klucel (hydroxypropylcellulose) (HPC)): 3 of 3

Structure (SMILES): Cc1ccc(N=Cc2ccc([N+](=O)[O-])s2)cc1Cl
- survivor count [3]: 6 of 6

Structure (SMILES): O=NN(C(=O)Nc1ccccc1)C1CCCCC1
- survivor count (dose: 300.0 mg/kg/injection, schedule: Q01DX001 (ip), vehicle: carboxymethylcellulose (CMC)): 3 of 6

Structure (SMILES): CN1CCCCC1c1cccnc1 (stereo not drawn)
- survivor count (dose: 75.0 mg/kg/injection, schedule: Q01DX001 (ip), vehicle: saline): 0 of 6
- survivor count (dose: 150.0 mg/kg/injection, schedule: Q01DX001 (ip), vehicle: saline): 0 of 6
- survivor count (dose: 300.0 mg/kg/injection, schedule: Q01DX001 (ip), vehicle: saline): 0 of 6
